From US10233221B2, “Peptide having eight amino acid sequences derived from cage and retaining anticancer activity and activity to promote anticancer drug sensitivity of anticancer drug-resistant cancer cells” (L-Base Co., Ltd., priority 2014, dated 2019)
Some results were stated once for a whole list of compounds, not compound by compound.

Test system: Malme3M^R
Assay: Invasion assay (matrigel transwell)
Assay type: cell-based
Settings: 24 hours

| Substance | inhibition of invasiveness [%] |
| --- | --- |
| D-AQTGTGKT (all D-amino acids; listed as Homo sapiens) | ≥ 50 |
| AQTGTGKT (listed as Homo sapiens) | ≥ 50 |
